Measured values as given in PMC3815101.
Results are given in words; binding and its absence hold for the method and conditions named. Binding seen in cells or lysates may run through a third protein. Some entries that bind do so weakly or less than the wild type.

By UniProt entry, the sequences of proteins in these tests, tags left out. Residues count along the entry.
UniProt P08592, residues 18-770: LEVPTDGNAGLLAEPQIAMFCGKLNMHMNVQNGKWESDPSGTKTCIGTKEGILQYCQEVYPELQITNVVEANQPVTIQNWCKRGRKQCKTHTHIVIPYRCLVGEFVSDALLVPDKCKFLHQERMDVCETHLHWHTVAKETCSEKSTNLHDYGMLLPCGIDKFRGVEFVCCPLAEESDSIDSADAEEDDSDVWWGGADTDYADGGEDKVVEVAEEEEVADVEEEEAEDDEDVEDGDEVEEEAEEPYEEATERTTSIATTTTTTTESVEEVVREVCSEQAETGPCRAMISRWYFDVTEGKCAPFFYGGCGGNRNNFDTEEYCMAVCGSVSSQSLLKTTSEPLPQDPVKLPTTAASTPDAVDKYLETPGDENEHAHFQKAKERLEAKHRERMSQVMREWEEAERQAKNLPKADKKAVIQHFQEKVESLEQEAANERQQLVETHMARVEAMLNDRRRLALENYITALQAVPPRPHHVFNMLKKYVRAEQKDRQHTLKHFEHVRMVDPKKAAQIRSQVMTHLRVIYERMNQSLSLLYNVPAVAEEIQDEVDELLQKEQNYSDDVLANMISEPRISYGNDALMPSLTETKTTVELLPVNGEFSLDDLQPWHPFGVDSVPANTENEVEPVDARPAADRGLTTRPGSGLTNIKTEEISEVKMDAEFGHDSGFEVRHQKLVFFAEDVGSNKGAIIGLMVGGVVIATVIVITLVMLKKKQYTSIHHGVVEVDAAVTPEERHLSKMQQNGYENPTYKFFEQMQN
UniProt P35739, residues 33-799: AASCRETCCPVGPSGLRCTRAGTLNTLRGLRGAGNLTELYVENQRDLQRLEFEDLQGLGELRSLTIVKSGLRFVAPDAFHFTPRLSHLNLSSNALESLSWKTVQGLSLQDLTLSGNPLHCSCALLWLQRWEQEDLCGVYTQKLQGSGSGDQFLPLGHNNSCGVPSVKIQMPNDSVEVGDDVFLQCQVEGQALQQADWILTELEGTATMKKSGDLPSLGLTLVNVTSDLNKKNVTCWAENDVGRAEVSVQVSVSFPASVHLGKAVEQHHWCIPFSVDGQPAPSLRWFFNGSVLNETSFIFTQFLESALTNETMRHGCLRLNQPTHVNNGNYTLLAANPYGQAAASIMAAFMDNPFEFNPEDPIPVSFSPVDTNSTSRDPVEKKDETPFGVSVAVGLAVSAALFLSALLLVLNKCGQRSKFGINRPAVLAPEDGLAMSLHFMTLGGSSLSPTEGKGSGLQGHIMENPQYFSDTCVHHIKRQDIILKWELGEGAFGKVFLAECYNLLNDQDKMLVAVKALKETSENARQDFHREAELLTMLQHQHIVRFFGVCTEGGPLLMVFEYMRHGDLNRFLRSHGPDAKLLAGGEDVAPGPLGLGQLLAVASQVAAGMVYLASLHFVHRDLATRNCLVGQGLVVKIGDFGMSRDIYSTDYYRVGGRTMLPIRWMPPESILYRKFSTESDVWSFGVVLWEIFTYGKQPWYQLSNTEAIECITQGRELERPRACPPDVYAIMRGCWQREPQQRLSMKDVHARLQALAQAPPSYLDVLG
UniProt P07174, residues 30-425: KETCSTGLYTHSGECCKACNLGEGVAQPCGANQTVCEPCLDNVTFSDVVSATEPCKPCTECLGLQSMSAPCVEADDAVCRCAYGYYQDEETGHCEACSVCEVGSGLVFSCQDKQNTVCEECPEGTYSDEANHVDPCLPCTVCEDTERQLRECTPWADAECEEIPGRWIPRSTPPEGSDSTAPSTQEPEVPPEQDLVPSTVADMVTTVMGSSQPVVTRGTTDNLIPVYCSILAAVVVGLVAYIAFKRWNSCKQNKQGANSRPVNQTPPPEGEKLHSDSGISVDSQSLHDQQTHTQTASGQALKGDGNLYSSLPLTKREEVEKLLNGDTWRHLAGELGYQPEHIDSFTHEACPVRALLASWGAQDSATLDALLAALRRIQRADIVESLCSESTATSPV

Molecular target: β-amyloid precursor protein (APP) (rat (endogenous in PC12)) (UniProt P08592)
Assay: co-IP; PC12 cells lysed with CelLytic M Cell Lysis Reagent and protease inhibitor cocktail; equal amounts of lysate incubated with rabbit IgG, mIgG, APP antibodies (22C11, 369), TrkA antibodies (1-3) or p75NTR antibodies (1-2) and rProtein A-sepharose beads; Western blotting

Substance: TrkA (from UniProt P35739 33-799) (receptor)
- binding: binds

Substance: p75NTR (from UniProt P07174 30-425) (receptor)
- binding: binds
